Assay results taken from article PMC3762332.
For at least one entry, the source does not settle the construct or the ends of the probe. For some of these results: Protein sequences can lack the tags named with them.

Protein sequences, listed by entry. Tags and fused reporters are not part of them. Lines headed by an entry give the natural chain unless they say otherwise; changes in a name come on top.
UniProt Q8NC26: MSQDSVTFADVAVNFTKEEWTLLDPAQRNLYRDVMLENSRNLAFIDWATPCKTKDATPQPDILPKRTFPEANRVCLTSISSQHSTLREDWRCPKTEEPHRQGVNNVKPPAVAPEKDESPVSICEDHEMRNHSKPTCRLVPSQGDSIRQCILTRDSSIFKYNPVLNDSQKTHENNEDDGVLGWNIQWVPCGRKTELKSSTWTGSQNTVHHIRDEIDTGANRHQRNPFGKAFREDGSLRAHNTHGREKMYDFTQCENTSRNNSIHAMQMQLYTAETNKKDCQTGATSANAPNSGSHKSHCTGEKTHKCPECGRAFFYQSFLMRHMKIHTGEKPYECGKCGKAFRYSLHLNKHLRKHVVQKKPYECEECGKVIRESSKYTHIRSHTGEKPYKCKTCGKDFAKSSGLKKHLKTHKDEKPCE
UniProt P17026: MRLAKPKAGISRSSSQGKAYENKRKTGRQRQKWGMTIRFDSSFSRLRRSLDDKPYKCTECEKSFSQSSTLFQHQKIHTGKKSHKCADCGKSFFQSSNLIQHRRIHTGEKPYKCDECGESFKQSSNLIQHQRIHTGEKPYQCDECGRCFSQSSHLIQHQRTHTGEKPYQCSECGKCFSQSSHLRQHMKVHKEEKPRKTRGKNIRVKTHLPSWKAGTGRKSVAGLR
UniProt P20719: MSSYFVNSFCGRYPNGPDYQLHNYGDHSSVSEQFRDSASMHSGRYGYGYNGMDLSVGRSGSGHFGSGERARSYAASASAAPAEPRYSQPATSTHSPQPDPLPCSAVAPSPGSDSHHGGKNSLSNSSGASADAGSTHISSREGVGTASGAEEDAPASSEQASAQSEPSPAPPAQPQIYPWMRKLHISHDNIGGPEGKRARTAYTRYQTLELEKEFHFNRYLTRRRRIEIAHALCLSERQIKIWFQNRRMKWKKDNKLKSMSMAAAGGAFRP
UniProt Q8TAF7: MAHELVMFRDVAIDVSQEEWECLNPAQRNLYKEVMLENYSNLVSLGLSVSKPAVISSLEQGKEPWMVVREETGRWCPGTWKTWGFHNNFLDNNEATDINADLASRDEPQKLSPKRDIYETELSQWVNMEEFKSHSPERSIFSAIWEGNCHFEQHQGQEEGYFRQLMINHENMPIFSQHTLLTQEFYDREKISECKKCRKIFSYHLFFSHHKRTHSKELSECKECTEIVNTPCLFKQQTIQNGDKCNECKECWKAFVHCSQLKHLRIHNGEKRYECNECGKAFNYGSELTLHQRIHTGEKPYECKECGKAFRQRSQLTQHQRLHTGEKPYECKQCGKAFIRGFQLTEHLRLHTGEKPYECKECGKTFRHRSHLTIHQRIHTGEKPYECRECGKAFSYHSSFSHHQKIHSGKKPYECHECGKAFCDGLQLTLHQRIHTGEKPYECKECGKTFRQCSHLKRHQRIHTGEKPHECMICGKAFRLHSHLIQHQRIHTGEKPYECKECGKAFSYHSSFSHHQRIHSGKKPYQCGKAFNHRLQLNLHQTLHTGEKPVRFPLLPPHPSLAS
UniProt O00716: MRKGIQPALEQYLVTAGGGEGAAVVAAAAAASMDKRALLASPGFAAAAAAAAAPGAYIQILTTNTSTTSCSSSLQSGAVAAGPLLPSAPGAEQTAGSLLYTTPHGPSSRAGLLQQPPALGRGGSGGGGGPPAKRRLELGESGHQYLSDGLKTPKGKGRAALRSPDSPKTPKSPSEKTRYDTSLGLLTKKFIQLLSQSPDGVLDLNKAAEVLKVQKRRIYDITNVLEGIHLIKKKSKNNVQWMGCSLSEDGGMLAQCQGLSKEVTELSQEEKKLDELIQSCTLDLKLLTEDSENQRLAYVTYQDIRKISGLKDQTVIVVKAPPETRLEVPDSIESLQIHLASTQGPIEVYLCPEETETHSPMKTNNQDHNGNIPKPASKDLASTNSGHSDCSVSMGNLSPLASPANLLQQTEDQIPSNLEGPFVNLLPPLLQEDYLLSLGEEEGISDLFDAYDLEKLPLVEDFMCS
UniProt P43694: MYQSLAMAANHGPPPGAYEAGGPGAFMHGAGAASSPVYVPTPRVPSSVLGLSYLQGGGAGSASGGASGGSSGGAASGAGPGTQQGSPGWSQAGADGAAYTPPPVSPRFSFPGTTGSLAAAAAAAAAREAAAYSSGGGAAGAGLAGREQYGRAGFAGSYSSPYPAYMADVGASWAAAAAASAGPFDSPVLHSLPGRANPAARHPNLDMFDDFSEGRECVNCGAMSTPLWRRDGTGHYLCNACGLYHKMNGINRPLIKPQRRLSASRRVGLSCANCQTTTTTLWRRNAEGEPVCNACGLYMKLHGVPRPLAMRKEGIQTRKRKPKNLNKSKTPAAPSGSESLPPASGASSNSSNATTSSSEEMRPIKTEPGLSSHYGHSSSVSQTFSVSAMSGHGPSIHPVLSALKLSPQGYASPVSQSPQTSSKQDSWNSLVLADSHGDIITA
UniProt Q9BWM5: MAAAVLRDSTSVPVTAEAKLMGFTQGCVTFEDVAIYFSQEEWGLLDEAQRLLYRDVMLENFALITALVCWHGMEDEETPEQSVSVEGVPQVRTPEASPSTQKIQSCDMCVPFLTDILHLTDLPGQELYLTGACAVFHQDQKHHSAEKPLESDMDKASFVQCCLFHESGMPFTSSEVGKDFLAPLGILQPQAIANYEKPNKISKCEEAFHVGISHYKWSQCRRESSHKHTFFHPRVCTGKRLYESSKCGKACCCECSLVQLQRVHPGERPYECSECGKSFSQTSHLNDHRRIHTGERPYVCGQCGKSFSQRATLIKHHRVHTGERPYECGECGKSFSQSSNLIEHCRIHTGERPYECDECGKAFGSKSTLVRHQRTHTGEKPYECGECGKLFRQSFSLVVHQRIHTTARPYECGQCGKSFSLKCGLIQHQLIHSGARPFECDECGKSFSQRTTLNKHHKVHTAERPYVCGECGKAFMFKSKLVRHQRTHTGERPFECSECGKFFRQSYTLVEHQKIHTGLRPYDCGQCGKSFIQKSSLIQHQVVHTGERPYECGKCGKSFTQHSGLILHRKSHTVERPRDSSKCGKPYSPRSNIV
UniProt Q8IW36: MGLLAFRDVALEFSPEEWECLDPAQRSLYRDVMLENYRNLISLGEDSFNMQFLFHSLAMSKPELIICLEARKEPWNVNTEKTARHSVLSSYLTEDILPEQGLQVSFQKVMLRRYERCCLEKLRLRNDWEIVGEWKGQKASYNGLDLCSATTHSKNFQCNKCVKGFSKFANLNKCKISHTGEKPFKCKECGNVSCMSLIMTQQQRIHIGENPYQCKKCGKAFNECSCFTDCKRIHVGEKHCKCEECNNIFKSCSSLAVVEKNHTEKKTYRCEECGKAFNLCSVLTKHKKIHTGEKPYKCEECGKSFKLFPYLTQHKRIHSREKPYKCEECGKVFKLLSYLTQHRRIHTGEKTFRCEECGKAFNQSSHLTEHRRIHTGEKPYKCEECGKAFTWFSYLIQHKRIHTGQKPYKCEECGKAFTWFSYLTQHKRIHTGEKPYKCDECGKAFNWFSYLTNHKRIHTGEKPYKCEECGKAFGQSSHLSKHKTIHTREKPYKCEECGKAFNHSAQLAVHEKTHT

Columns and labels:
Test in all cases: protein microarray
Settings in all cases: 10-fold cold unmethylated competitor; 5mC at CpG (SssI, both strands); recombinant protein; protein details: GST (N-terminal); label: Cy5
ATF6B (Homo sapiens) = target: T1, ATF6B (Homo sapiens) (UniProt Q99941)
T1 sequence (looked up, limits assumed): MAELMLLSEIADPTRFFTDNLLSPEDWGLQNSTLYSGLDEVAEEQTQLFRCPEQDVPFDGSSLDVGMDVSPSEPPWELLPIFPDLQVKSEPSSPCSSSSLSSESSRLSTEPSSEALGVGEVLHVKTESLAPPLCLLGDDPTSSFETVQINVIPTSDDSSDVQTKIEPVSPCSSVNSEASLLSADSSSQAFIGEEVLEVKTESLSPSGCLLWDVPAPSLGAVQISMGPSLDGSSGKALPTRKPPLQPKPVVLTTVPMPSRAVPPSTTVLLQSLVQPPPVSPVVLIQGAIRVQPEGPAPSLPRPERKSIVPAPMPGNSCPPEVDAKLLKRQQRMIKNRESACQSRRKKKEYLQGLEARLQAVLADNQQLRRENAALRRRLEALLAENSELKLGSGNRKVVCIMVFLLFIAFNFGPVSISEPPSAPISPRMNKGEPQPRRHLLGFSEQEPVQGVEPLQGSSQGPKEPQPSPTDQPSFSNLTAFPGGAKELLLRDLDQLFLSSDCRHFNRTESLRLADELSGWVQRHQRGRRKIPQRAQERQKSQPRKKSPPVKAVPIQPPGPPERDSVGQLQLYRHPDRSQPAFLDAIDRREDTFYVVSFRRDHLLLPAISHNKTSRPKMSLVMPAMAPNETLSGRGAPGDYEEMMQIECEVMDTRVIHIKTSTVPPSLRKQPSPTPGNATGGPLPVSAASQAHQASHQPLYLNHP

ZNF114 (Homo sapiens) = ZNF114 (Homo sapiens) (UniProt Q8NC26)
ZNF22 (Homo sapiens) = ZNF22 (Homo sapiens) (UniProt P17026)
FOXC1 (Homo sapiens) = target: T2, FOXC1 (Homo sapiens) (UniProt Q12948)
T2 sequence (looked up, limits assumed): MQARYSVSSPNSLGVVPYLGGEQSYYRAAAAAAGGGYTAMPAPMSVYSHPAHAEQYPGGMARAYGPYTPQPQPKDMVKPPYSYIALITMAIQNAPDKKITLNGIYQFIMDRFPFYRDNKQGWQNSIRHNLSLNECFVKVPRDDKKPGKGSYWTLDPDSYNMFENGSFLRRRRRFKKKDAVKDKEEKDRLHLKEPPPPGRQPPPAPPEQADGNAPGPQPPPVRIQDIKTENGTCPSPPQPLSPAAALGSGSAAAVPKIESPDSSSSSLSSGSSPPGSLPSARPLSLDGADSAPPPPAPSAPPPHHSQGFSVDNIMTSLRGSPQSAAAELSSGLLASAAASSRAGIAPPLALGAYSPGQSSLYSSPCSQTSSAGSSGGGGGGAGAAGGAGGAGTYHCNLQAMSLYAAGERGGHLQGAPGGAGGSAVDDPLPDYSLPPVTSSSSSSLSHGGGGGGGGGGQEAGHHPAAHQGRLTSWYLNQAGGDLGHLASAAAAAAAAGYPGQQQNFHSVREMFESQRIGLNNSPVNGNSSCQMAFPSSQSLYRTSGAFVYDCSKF

HOXA5 (Homo sapiens) = HOXA5 (Homo sapiens) (UniProt P20719)
ZNF461 (Homo sapiens) = ZNF461 (Homo sapiens) (UniProt Q8TAF7)
E2F3 (Homo sapiens) = E2F3 (Homo sapiens) (UniProt O00716)
GATA4 (Homo sapiens) = GATA4 (Homo sapiens) (UniProt P43694)
PMS1 (Homo sapiens) = target: T3, PMS1 (Homo sapiens) (UniProt P54277)
T3 sequence (looked up, limits assumed): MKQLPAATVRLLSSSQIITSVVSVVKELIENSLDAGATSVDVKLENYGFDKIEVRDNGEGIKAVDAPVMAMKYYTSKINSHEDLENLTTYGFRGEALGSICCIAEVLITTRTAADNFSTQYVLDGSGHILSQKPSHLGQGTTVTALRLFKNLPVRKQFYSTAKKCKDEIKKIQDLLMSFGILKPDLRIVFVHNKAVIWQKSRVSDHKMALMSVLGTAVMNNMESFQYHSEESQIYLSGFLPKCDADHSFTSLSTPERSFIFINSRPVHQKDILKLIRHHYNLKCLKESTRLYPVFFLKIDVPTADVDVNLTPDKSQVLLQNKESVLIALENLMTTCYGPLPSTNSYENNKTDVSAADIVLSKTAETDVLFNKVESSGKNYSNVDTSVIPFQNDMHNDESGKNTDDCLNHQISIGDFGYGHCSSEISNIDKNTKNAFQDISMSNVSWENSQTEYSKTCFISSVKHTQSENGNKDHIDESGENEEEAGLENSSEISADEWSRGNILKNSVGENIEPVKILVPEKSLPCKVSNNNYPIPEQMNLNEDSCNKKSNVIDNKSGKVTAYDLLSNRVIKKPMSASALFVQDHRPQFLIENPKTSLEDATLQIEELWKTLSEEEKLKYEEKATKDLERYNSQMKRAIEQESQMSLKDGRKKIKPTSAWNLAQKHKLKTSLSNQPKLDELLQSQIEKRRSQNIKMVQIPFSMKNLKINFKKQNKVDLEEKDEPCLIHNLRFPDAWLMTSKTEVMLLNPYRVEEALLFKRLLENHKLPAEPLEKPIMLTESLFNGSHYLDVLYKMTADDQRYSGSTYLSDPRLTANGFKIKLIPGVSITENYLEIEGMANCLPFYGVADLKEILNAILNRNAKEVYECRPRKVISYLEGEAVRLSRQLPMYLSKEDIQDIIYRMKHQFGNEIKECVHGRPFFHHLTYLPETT

ZMYM3 (Homo sapiens) = target: T4, ZMYM3 (Homo sapiens) (UniProt Q14202)
T4 sequence (looked up, limits assumed): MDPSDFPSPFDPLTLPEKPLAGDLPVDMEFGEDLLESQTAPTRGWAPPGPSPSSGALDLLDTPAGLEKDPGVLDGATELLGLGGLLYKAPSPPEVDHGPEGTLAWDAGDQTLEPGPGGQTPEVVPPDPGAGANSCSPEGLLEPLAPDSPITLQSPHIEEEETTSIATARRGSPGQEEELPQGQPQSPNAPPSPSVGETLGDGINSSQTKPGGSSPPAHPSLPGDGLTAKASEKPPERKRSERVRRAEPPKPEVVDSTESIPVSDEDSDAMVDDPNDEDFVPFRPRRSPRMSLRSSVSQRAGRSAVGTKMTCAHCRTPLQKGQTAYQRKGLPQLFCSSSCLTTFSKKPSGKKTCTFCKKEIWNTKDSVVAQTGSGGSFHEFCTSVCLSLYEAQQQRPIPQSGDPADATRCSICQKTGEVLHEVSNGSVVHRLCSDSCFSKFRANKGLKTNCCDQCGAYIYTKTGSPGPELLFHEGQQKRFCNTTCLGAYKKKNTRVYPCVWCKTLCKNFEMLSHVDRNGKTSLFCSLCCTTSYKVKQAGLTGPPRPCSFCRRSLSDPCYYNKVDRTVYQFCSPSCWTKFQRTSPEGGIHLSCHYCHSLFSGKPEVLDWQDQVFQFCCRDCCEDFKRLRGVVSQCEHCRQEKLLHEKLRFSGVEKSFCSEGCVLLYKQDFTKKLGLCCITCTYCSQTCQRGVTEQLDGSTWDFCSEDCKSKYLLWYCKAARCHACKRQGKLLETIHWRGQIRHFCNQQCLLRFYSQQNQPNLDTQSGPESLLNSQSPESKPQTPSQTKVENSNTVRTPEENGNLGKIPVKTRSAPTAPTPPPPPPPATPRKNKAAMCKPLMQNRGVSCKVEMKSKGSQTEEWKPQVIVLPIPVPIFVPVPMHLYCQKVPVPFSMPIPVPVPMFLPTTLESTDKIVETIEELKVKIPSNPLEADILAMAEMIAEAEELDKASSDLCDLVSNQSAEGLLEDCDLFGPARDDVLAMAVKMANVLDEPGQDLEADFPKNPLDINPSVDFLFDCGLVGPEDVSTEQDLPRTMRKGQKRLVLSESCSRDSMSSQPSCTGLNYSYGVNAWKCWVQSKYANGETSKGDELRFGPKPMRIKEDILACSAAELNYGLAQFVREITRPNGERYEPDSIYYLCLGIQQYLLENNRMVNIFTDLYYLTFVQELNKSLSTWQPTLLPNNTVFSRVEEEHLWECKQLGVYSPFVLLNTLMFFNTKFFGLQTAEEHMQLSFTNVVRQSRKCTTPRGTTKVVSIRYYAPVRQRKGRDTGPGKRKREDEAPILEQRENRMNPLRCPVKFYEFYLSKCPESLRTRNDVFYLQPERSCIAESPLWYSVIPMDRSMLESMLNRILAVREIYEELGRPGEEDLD

ZNF416 (Homo sapiens) = ZNF416 (Homo sapiens) (UniProt Q9BWM5)
ZNF695 (Homo sapiens) = ZNF695 (Homo sapiens) (UniProt Q8IW36)

Measured: binding result

CGGCTCCTTTCGGCTCCCCCTATAGTGAGTGCTATTA (double strand) [M298]
binds: ATF6B (Homo sapiens) | ZNF114 (Homo sapiens) | ZNF22 (Homo sapiens)

TGCGTGAGAAGAGGGTGCGTGAGAAGACCCTATAGTGAGTGCTATTA (double strand) [M10]
binds: FOXC1 (Homo sapiens) | HOXA5 (Homo sapiens) | ZNF461 (Homo sapiens)

CGGCCCGAAACGGCCCGCCCTATAGTGAGTGCTATTA (double strand) [M73]
binds: FOXC1 (Homo sapiens) | HOXA5 (Homo sapiens) | ZNF114 (Homo sapiens)

GTGACGTAAAGTGACGTCCCTATAGTGAGTGCTATTA (double strand) [M206]
binds: E2F3 (Homo sapiens) | GATA4 (Homo sapiens) | PMS1 (Homo sapiens) | ZMYM3 (Homo sapiens) | ZNF114 (Homo sapiens) | ZNF416 (Homo sapiens) | ZNF695 (Homo sapiens)

AGCCCCGTTTAGCCCCGCCCTATAGTGAGTGCTATTA (double strand) [M299]
binds: ATF6B (Homo sapiens) | ZNF114 (Homo sapiens) | ZNF22 (Homo sapiens)
